Laboratory results reported in patent US20060117402A1.
No constants are given. Whether binding was seen depends on the method and setting. For some assays here: In cells and extracts the contact can be indirect. Some entries that bind do so weakly or less than the wild type. For some assays here: Where a sequence is shown, tags or fusion partners need not be part of it.

Amino acid sequences for entries named in this document (tags omitted). A change or cut given only in a name is not applied to a line headed by its entry.
UniProt P0A7C2: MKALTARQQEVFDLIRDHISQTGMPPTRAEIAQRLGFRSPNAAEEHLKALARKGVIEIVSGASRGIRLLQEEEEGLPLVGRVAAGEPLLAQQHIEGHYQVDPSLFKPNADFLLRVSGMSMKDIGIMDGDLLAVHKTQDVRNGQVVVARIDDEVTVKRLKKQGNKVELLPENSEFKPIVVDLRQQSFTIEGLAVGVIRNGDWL

T1: full-length ABF2, in vitro translated and 35S-Met-labelled (Arabidopsis) (UniProt Q9M7Q4)
T1 sequence (35S-Met-labelled, looked up): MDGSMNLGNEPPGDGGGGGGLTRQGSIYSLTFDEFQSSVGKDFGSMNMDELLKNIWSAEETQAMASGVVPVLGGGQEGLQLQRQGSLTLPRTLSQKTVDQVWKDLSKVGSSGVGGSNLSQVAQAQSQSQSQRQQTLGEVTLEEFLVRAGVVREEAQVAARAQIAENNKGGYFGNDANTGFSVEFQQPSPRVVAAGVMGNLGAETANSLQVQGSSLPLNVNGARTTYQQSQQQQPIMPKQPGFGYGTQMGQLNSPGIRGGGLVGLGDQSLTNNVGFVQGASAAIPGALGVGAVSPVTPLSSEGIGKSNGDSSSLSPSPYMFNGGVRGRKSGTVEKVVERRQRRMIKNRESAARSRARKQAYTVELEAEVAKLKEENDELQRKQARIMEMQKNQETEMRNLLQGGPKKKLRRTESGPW


Tests used:
[1] = target: T2, ABF2 variable region (amino acids 234-337) bait, fused to the LexA DNA binding domain in pGilda (Arabidopsis) (UniProt P0A7C2+Q9M7Q4); test: yeast two-hybrid screen (LexA system)
[2] = target: T2, ABF2 variable region (amino acids 234-337) bait, fused to the LexA DNA binding domain in pGilda (Arabidopsis); test: yeast two-hybrid screen, Leu+/LacZ+ colonies
[3] = target: T1, full-length ABF2, in vitro translated and 35S-Met-labelled (Arabidopsis); test: GST pulldown of 35S-labelled ABF2, autoradiography

binding [1]	binding [2]	binding [3]	Binder
binds	binds	–	Group 2 positive clone (clone 20), two-hybrid library clone encoding the arm repeat protein ARIA (At5g19330) (protein, not shown: large carriers) ERREGRSFPERKGQKRKLEEGAAAVEDREISAVSTDGGQALLSEVAAQVSVLNSAFSWQESDRAAAKRATQVLAELAKNEDLVNVIVDGGAVPALMTHLQAPPYNDGDLAEKPYEHEVEKGSAFALGLLAIKPEYQKLIVDKGALPHLVNLLKRNKDGSSSRAVNSVIRRAADAITNLAHENSSIKTRVRVEGGIPPLVELLEFSDSKVQRAAAGALRTLAFKNDDNKNQIVECNALPTLILMLGSEDAAIHYEAVGVIGNLVHSSPHIKKEVLTAGALQPVIGLLSSCCPESQREAALLLGQFASTDSDCKVHIVQRGAVRPLIEMLQSPDVQLKEMSAFALGRLAQDAHNQAGIAHSGGLGPLLKLLDSRNGSLQHNAAFALYGLADNEDNVSDFIRVGGIQKLQDGEFIVQATKDCVSKTLKRLEEKIHGRVLRHLLYLMRISEKSIQRRVALALAHLCSPEDQRTIFIDDNGLELLLGLLGSLNTKQQLDGAAALYKLANKSMALSPVDAAPPSPTQRVYLGEQYVNNATLSDVTFLVEGRTFYAHRICLLASSDAFRAMFDGGYREKDARDIEIPNIKWEVFELMMRFIYTGSVDITNEISKDLLRAADQYLLEGLKRLCEYTIAQDITLESIGDMYELSEAFHAMSLRQACIMFILEHFDKLSSMPWQNELVQRTIPEIREYFCRALTKSTTNLQSLRL
–	–	binds	GST-full-length ARIA fusion protein (protein, not shown: a dimerising Fc or GST) MDQQPERREGRSFPERKGQKRKLEEGAAAVEDREISAVSTDGGQALLSEVAAQVSVLNSAFSWQESDRAAAKRATQVLAELAKNEDLVNVIVDGGAVPALMTHLQAPPYNDGDLAEKPYEHEVEKGSAFALGLLAIKPEYQKLIVDKGALPHLVNLLKRNKDGSSSRAVNSVIRRAADAITNLAHENSSIKTRVRVEGGIPPLVELLEFSDSKVQRAAAGALRTLAFKNDDNKNQIVECNALPTLILMLGSEDAAIHYEAVGVIGNLVHSSPHIKKEVLTAGALQPVIGLLSSCCPESQREAALLLGQFASTDSDCKVHIVQRGAVRPLIEMLQSPDVQLKEMSAFALGRLAQDAHNQAGIAHSGGLGPLLKLLDSRNGSLQHNAAFALYGLADNEDNVSDFIRVGGIQKLQDGEFIVQATKDCVSKTLKRLEEKIHGRVLRHLLYLMRISEKSIQRRVALALAHLCSPEDQRTIFIDDNGLELLLGLLGSLNTKQQLDGAAALYKLANKSMALSPVDAAPPSPTQRVYLGEQYVNNATLSDVTFLVEGRTFYAHRICLLASSDAFRAMFDGGYREKDARDIEIPNIKWEVFELMMRFIYTGSVDITNEISKDLLRAADQYLLEGLKRLCEYTIAQDITLESIGDMYELSEAFHAMSLRQACIMFILEHFDKLSSMPWQNELVQRTIPEIREYFCRALTKSTTNLQSLRL

More lines, now with the values behind:

Binder	binding [1]	binding [2]	binding [3]
GST-ARIA fusion protein containing the arm repeat region (amino acids 1-518) (protein, not shown: a dimerising Fc or GST) MDQQPERREGRSFPERKGQKRKLEEGAAAVEDREISAVSTDGGQALLSEVAAQVSVLNSAFSWQESDRAAAKRATQVLAELAKNEDLVNVIVDGGAVPALMTHLQAPPYNDGDLAEKPYEHEVEKGSAFALGLLAIKPEYQKLIVDKGALPHLVNLLKRNKDGSSSRAVNSVIRRAADAITNLAHENSSIKTRVRVEGGIPPLVELLEFSDSKVQRAAAGALRTLAFKNDDNKNQIVECNALPTLILMLGSEDAAIHYEAVGVIGNLVHSSPHIKKEVLTAGALQPVIGLLSSCCPESQREAALLLGQFASTDSDCKVHIVQRGAVRPLIEMLQSPDVQLKEMSAFALGRLAQDAHNQAGIAHSGGLGPLLKLLDSRNGSLQHNAAFALYGLADNEDNVSDFIRVGGIQKLQDGEFIVQATKDCVSKTLKRLEEKIHGRVLRHLLYLMRISEKSIQRRVALALAHLCSPEDQRTIFIDDNGLELLLGLLGSLNTKQQLDGAAALYKLANKSMALSPVD	–	–	binds
GST-ARIA fusion protein containing the BTB domain (amino acids 511-710) (protein, not shown: a dimerising Fc or GST) SMALSPVDAAPPSPTQRVYLGEQYVNNATLSDVTFLVEGRTFYAHRICLLASSDAFRAMFDGGYREKDARDIEIPNIKWEVFELMMRFIYTGSVDITNEISKDLLRAADQYLLEGLKRLCEYTIAQDITLESIGDMYELSEAFHAMSLRQACIMFILEHFDKLSSMPWQNELVQRTIPEIREYFCRALTKSTTNLQSLRL	–	–	binds
